From PMC12116911
No constants are given. Whether binding was seen depends on the method and setting. In cells and extracts the contact can be indirect. Some results given as binding are weak or reduced against the parent protein; the word gives no strength. Sequences can lack the tags named with a protein.

The chains behind the UniProt entries cited, without tags or fusion partners.
UniProt O95747: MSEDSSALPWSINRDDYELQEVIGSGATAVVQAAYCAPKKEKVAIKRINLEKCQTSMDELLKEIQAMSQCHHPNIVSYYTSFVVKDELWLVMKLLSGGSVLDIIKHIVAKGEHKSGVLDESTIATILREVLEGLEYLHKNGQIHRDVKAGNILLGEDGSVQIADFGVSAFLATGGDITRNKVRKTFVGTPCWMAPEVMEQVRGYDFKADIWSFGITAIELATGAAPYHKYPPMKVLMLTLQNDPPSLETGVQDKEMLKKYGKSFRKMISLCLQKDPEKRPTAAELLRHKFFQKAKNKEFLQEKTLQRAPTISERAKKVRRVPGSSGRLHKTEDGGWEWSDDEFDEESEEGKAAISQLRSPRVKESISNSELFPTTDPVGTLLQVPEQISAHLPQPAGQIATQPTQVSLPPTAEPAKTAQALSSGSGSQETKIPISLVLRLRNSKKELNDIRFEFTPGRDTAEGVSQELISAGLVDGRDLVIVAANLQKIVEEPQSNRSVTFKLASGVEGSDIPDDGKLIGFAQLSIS

Molecular target: HA-tagged OXSR1 (oxidative stress responsive kinase 1) (human) (UniProt O95747)
Assay: co-IP; HEK-293T cells transiently co-expressing HA- and V5-tagged proteins; lysis buffer 50 mM Tris-HCl pH 7.4, 150 mM NaCl, 2 mM MgCl2, 1% NP-40; anti-HA magnetic beads or anti-V5 agarose, 4 h at 4 °C; four washes; immunoblot

binding: binds
B1: V5-tagged SLC38A2 (protein, UniProt Q96QD8 1-506)
chain: MKKAEMGRFSISPDEDSSSYSSNSDFNYSYPTKQAALKSHYADVDPENQNFLLESNLGKKKYETEFHPGTTSFGMSVFNLSNAIVGSGILGLSYAMANTGIALFIILLTFVSIFSLYSVHLLLKTANEGGSLLYEQLGYKAFGLVGKLAASGSITMQNIGAMSSYLFIVKYELPLVIQALTNIEDKTGLWYLNGNYLVLLVSLVVILPLSLFRNLGYLGYTSGLSLLCMVFFLIVVICKKFQVPCPVEAALIINETINTTLTQPTALVPALSHNVTENDSCRPHYFIFNSQTVYAVPILIFSFVCHPAVLPIYEELKDRSRRRMMNVSKISFFAMFLMYLLAALFGYLTFYEHVESELLHTYSSILGTDILLLIVRLAVLMAVTLTVPVVIFPIRSSVTHLLCASKDFSWWRHSLITVSILAFTNLLVIFVPTIRDIFGFIGASAASMLIFILPSAFYIKLVKKEPMKSVQKIGALFFLLSGVLVMTGSMALIVLDWVHNAPGGGH
